Test: general procedure: Fmoc solid-phase peptide synthesis; Rink amide resin; PyBOP/DIPEA
Conditions: whole synthesis, scale of the general procedure 100 μmol

Substance | isolated yield [%]
Ac- RBRRBRFQILYRBHBH-E | 34
Succ-RBRRBRRFQILYRBHBH-NH2 | 26
E-RBRRBRRFQILYRBHBH-NH2 | 34
Ac-RBRRBRFQILYBRBR-E | 40
Ac-RBRRBRRFQILYRBHBH-E | 34

Test: general procedure: Fmoc solid-phase peptide synthesis; Pre-loaded Wang resin; PyBOP/DIPEA
Conditions: whole synthesis, scale of the general procedure 100 μmol

Substance | isolated yield [%]
Ac-RBRRBRRFQILYRBHBH-B | 34

Test: general procedure: Fmoc solid-phase peptide synthesis; CI-Trityl tentagel resin; PyBOP/DIPEA
Conditions: whole synthesis, scale of the general procedure 100 μmol

Substance | isolated yield [%]
Ac-RBRRBRRFQILYRBHBH-Ab | 37

Test: general procedure: Fmoc solid-phase peptide synthesis; Rink amide resin (0.46 mmol/g); Fmoc-β-Ala-OH preloaded Wang resin (0.19 or 0.46 mmol/g); Tentagel Cl-trityl resin (0.41); PyBOP/DIPEA
Conditions: conjugation step, based on P-PMO (UV-Vis, PMO extinction coefficient)

Substance | conjugation yield [%]
Ac-RBRRBRRFQILYRBHBH-(Ab)-PMO | 26
PMO-(Succ)-RBRRBRRFQILYRBHBH-NH2 | 64
Ac-RBRRBRRFQILYRBHBH-(E)-PMO | 27
PMO-(E)-RBRRBRRFQILYRBHBH-NH2 | 48
Ac-RBRRBRFQILYRBHBH-(E)-PMO | 49
